{"source": "PubChem BioAssay AID504791 (Drosophila RNAi Screening Center, 2011)", "assay": "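Factors in Argonaute-based small RNA production and activity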 (primary screen)", "cells": "Drosophila S2-derived reporter cells", "reagent": "long dsRNA against Drosophila genes, about 150-250 ng dsRNA per well (siRNA assay); about 80-120 ng (miRNA assay)", "time to read-out": "about 5 days (siRNA assay); about 4 days (miRNA assay)", "treatment": "copper sulfate induction of reporters: 25 µM (siRNA assay); 200 mM stated (miRNA assay), 1-2 days before reading", "measured": "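Dual luciferase assay: Renilla to firefly signal ratio in each well, scaled to the mean ratio of its plate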", "units": "stable assay Renilla, run 1 in luminescence; stable assay firefly, run 1 in luminescence", "active means": "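First-pass picks had plate-scaled ratios over 1.5 for the siRNA assay, over 1.6 for the miRNA assay, or under 0.6; two distinct dsRNAs had to score alike on retest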", "note": "In all, the deposit lists about 23,000 reagents; below is a random part of those that have a named target and a result. Over the whole deposit, 199 (0.86%) got an active call. 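Plate-scaled ratios behind the calls are not deposited; printed light signals are raw; many rows marked increased or decreased are still called inactive.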 Unmarked entries are inactive. Reagents against one gene are numbered here. Not given: the direction of the score."}
{"target":"CG10472","reagent":1,"stable assay Renilla, run 1":6835,"stable assay firefly, run 1":5.03e5}
{"target":"CG7248","reagent":1,"stable assay Renilla, run 1":5855,"stable assay firefly, run 1":4.52e5}
{"target":"sli","reagent":1,"stable assay Renilla, run 1":5451,"stable assay firefly, run 1":3.72e5}
{"target":"CG7611","reagent":1,"stable assay Renilla, run 1":3904,"stable assay firefly, run 1":3.60e5}
{"target":"Mal-A6","reagent":1,"stable assay Renilla, run 1":6351,"stable assay firefly, run 1":3.33e5}
{"target":"CG1620","reagent":1,"stable assay Renilla, run 1":51236,"stable assay firefly, run 1":2.33e6}
{"target":"Caf1-180","reagent":1,"stable assay Renilla, run 1":7132,"stable assay firefly, run 1":5.24e5}
{"target":"CG34428","reagent":1,"stable assay Renilla, run 1":5854,"stable assay firefly, run 1":3.29e5}
{"target":"Gpdh3","reagent":1,"stable assay Renilla, run 1":4631,"stable assay firefly, run 1":3.93e5}
{"target":"Gpdh3","reagent":2,"stable assay Renilla, run 1":6462,"stable assay firefly, run 1":2.85e5}
{"target":"CG13544","reagent":1,"stable assay Renilla, run 1":5063,"stable assay firefly, run 1":3.36e5}
{"target":"CG5418","reagent":1,"stable assay Renilla, run 1":8886,"stable assay firefly, run 1":5.17e5}
